PubChem BioAssay AID1259331, Drosophila RNAi Screening Center | 2017
The deposit covers about 3,100 reagents; below is an unselected part. Over the whole deposit, 126 (4.1%) were called active. 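Calls are per reagent; zinc was so toxic that few knock-downs lowered ATP further, so most hits raise ATP.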 Raw values are not corrected between plates. Entries without a mark were called inactive. A plus sign joins genes that one reagent is predicted to hit. Not stated in the record: the amount of reagent.

- Aim: 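Genes whose knock-down changes cell survival under toxic zinc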 (primary screen)
- Cell system: Drosophila S2R+ cells
- Knock-down reagent: long dsRNA against Drosophila genes
- Duration: 5 days (4 days knock-down, then 1 day zinc)
- Treatment: zinc chloride at 15 mM final level for 1 day
- Read-out: 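Luminescent ATP assay standing in for viability; Z score is the mean over three replicate plates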
- Reading the numbers: mean Z score: higher = more ATP than other wells, better survival under zinc; ATP luminescence: higher = more ATP, more viable cells
- Rule for the call: 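Hit when the absolute Z score is greater than 1.5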
- Calls: active = hit, ATP up or down; inactive = not a hit

gene	amplicon	mean Z score	ATP luminescence, replicate 1	ATP luminescence, replicate 2
Lfg + asRNA:CR43468	DRSC06853	-0.514	64199	64189
Cad89D (Cadherin 89D)	DRSC15022	-0.435	33164	51822
Cad89D (Cadherin 89D)	DRSC39775	-0.477	51698	47120
SsRbeta (Signal sequence receptor beta)	DRSC11290	-0.0137	30573	31433
CG10062	DRSC24932	-0.799	41976	43041
Tmtc4 (Transmembrane O-mannosyltransferase targeting cadherins 4)	DRSC15702	0.0681	35239	62313
Tmtc4 (Transmembrane O-mannosyltransferase targeting cadherins 4)	DRSC39629	-0.519	51509	51784
CG14511	DRSC14863	0.172	77285	60323
CG14511	DRSC26574	0.115	59686	56225
Karybeta3 (Karyopherin beta 3)	DRSC12355	0.0805	29667	33284
Karybeta3 (Karyopherin beta 3)	DRSC39901	0.671	66154	76160
CG15553	DRSC15091	0.833	79799	79926
CG15553	DRSC39697	0.397	68486	65262
ft (fat)	DRSC00819	-0.0648	53277	57460
ft (fat)	DRSC37550	-0.17	45968	45303
rumpel	DRSC18436	-0.326	58523	62810
rumpel	DRSC39504	-0.15	42988	48766
CG3168	DRSC18287	-0.286	40982	44257
CG3168	DRSC25481	-0.622	52515	51081
CG30008	DRSC21576	-0.0882	45562	44271
CG30008	DRSC27726	2.42 (active)	1.45e5	59582
wtrw (water witch)	DRSC14241	0.567	51978	53601
wtrw (water witch)	DRSC29977	-0.0757	46057	43897
CG32988	DRSC02692	-1.05	48509	45028
Mics1 (Mitochondrial morphology and cristae structure 1)	DRSC12537	-0.565	36747	47120
Mics1 (Mitochondrial morphology and cristae structure 1)	DRSC39452	0.509	60257	54836
ZnT77C (Zinc transporter 77C)	DRSC11766	-0.268	69430	59191
ZnT77C (Zinc transporter 77C)	DRSC11767	0.371	45440	50412
Ac78C (Adenylyl cyclase 78C)	DRSC11602	-0.162	71934	59466
Ac78C (Adenylyl cyclase 78C)	DRSC11619	-0.515	39113	43262
CG6484	DRSC06991	-0.0627	30233	32684
CG6484	DRSC28087	-0.654	53900	45783
Gr64f (Gustatory receptor 64f)	DRSC08447	-0.311	69258	56431
Gr64f (Gustatory receptor 64f)	DRSC25964	-0.139	54270	54973
subdued	DRSC15137	-0.504	39988	40622
subdued	DRSC39505	-0.344	49137	40478
Nup153 (Nucleoporin 153kD)	DRSC19904	0.421	48903	54664
Hmt-1 (Heavy metal tolerance factor 1)	DRSC15555	-0.332	44291	41136
Hmt-1 (Heavy metal tolerance factor 1)	DRSC39577	-0.113	60569	57659
m (miniature)	DRSC20181	0.64	80235	72997
m (miniature)	DRSC29636	-0.212	57357	58900
crq (croquemort)	DRSC00810	-0.289	42487	42781
COX4L (Cytochrome c oxidase subunit 4-like)	DRSC04841	0.0466	52418	41656
COX4L (Cytochrome c oxidase subunit 4-like)	DRSC39670	0.0168	62690	58197
CngA (Cyclic nucleotide-gated ion channel subunit A)	DRSC07362	0.122	77354	74764
Ktch (Ketchup)	DRSC15094	0.205	66188	72791
Ktch (Ketchup)	DRSC25973	-0.094	47463	59826
Ptp69D (Protein tyrosine phosphatase 69D)	DRSC11258	-0.146	71968	58437
Ptp69D (Protein tyrosine phosphatase 69D)	DRSC36691	-0.117	45552	45800
Ptp69D (Protein tyrosine phosphatase 69D)	DRSC36692	-0.0996	50326	43879
Nemp (Nuclear envelope integral membrane protein)	DRSC20206	0.513	52624	53258
Nemp (Nuclear envelope integral membrane protein)	DRSC26963	0.71	74849	65142
CG33124	DRSC00298	-0.295	38496	45971
CG12773	DRSC18580	-0.514	41742	36990
CG12773	DRSC24900	-0.678	41102	39679
mthl15 (methuselah-like 15)	DRSC01120	-0.194	41256	43382
mthl15 (methuselah-like 15)	DRSC39743	0.261	62278	65468
Arv1 (ACAT-related protein required for viability 1)	DRSC11491	-0.526	57940	56705
sand (sandman)	DRSC07245	-0.104	71848	69824
sand (sandman)	DRSC39678	-0.347	54150	59654
sax (saxophone)	DRSC07675	-0.193	32045	29822
sax (saxophone)	DRSC26844	-0.825	43811	55927
sax (saxophone)	DRSC37004	0.214	48286	51943
CG7497	DRSC28188	0.343	62861	62158
CG7497	DRSC37068	-0.329	47840	44188
Ih (I[[h]] channel)	DRSC07445	-0.247	29736	28399
Ih (I[[h]] channel)	DRSC24809	0.724	66026	70802
Shal (Shaker cognate l)	DRSC09625	-0.604	58368	53658
Shal (Shaker cognate l)	DRSC11283	0.126	78378	63616
CG31103	DRSC22324	-0.138	54167	56482
Eph (Eph receptor tyrosine kinase)	DRSC17164	-0.682	55162	54321
Eph (Eph receptor tyrosine kinase)	DRSC36767	0.0841	50086	46091
Eph (Eph receptor tyrosine kinase)	DRSC36768	0.188	47943	51407
mgl (Megalin)	DRSC17823	-0.468	39302	38856
mgl (Megalin)	DRSC17859	-0.442	55162	62347
cni (cornichon)	DRSC03512	-0.144	43691	34401
Syt1 (Synaptotagmin 1)	DRSC00158	-0.344	38599	37193
Syt1 (Synaptotagmin 1)	DRSC00840	0.0734	57820	56654
Syt1 (Synaptotagmin 1)	DRSC22077	-0.45	46468	38959
Syt1 (Synaptotagmin 1)	DRSC27456	-0.191	59912	50841
Gr64a (Gustatory receptor 64a)	DRSC21713	-0.539	38445	44737
Gr64a (Gustatory receptor 64a)	DRSC39738	-0.112	57991	57785
S2P (site-2 protease)	DRSC07311	-0.422	67577	65382
S2P (site-2 protease)	DRSC27864	-0.499	53653	46606
CG4332	DRSC19890	-0.591	38119	39751
CG4332	DRSC39702	0.0541	61249	59174
mthl5 (methuselah-like 5)	DRSC16155	-0.478	34947	46520
mthl5 (methuselah-like 5)	DRSC39532	0.0165	52879	49503

13 successive entries already listed, for reference:
gene	amplicon	mean Z score	ATP luminescence, replicate 1	ATP luminescence, replicate 2
Gr64f (Gustatory receptor 64f)	DRSC25964	-0.139	54270	54973
subdued	DRSC15137	-0.504	39988	40622
subdued	DRSC39505	-0.344	49137	40478
Nup153 (Nucleoporin 153kD)	DRSC19904	0.421	48903	54664
Hmt-1 (Heavy metal tolerance factor 1)	DRSC15555	-0.332	44291	41136
Hmt-1 (Heavy metal tolerance factor 1)	DRSC39577	-0.113	60569	57659
m (miniature)	DRSC20181	0.64	80235	72997
m (miniature)	DRSC29636	-0.212	57357	58900
crq (croquemort)	DRSC00810	-0.289	42487	42781
COX4L (Cytochrome c oxidase subunit 4-like)	DRSC04841	0.0466	52418	41656
COX4L (Cytochrome c oxidase subunit 4-like)	DRSC39670	0.0168	62690	58197
CngA (Cyclic nucleotide-gated ion channel subunit A)	DRSC07362	0.122	77354	74764
Ktch (Ketchup)	DRSC15094	0.205	66188	72791
